# Percent effect of library compounds

Amino acid sequences for entries named in this document (tags omitted).
UniProt P9WFT3, whole entry: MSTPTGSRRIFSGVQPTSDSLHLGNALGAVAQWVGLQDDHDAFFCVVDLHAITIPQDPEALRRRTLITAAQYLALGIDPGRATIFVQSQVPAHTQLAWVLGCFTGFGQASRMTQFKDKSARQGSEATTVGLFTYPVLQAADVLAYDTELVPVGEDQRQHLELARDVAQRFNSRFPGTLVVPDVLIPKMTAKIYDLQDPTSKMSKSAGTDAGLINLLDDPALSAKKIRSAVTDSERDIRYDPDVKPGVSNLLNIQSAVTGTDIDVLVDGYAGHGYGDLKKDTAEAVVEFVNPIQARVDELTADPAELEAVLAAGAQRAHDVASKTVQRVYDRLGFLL

Data taken from ChEMBL document CHEMBL3988442, “University of Dundee, Small-Polar-MMV Screening Library” (2021).

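Enzyme assay of tryptophanyl-tRNA synthetase; the read-out is not stated. Target: Tryptophan-tRNA ligase, Mycobacterium tuberculosis (UniProt P9WFT3). Concentration: 10 µM. Direction is not recorded; retested compounds ran higher, which suggests that high means inhibition. Size under these conditions: about 65,000 compounds, about 64 of them at 50% or above in at least one test.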

Results are given as percent effect.
The record does not define 0% and 100%; most values in the screen are far below 50% and negative numbers occur (in some assays of this library far below -100).
This is an unselected part of the compounds tested.

Compound,Percent Effect
O[C@@H]1CN(CC2CC2)CC[C@H]1N1CCN(c2ccccc2F)CC1,-1.987
CCCc1nnc(N2CCC(N3CCCC(O)C3)CC2)o1 (stereo not given),-2.832
Cc1cnc(C(NC(=O)NCc2nc(C3CC3)no2)C2CC2)s1 (stereo not given),-4.397
c1cncc(N2CCC3(CCCN(c4ccncc4)C3)CC2)c1,-8.245
Cc1ccc(C(=O)N2CCN(Cc3cccs3)CC2)n1C,-4.827
O=C(c1cccc2[nH]ncc12)N1CCCC1c1noc(C2CC2)n1 (stereo not given),-4.327
CC(C(=O)Nc1ncccn1)N1CCc2[nH]nc(C(F)(F)F)c2C1 (stereo not given),-3.431
CCc1nc(CN2CCCN(C(=O)COC(C)C)CC2)cs1,-0.3298
CN(C)CCNC(=O)c1cc2n(n1)CCN(C(=O)c1ccco1)C2,0.1347
CC(C)N(Cc1ccc(C#N)cc1)Cc1nnsc1Cl,5.366
CCOC(=O)N1CCC(C(=O)c2cc(F)ccc2F)CC1,-1.415
NC(=O)c1csc(N2C[C@@H](CN3CCCCC3)[C@@H](CO)C2)n1,2.877
N[C@@H]1CCC[C@@H](Oc2ccc(F)cc2Oc2cccc(F)c2)[C@@H]1O,2.841
C=C/C=c1\c(=C/C)oc2c(NCc3ccccc3)nc(CC)nc12,-3.689
COCCN1C(=O)C[C@H]2[C@H]1CCN2Cc1ccc(OC)cc1,-4.581
Cn1ccnc1CN1CCCN(C(=O)c2ccc3[nH]cnc3c2)CC1,-4.329
COc1ccc2c(ccn2CC(=O)Nc2n[nH]c(C(C)C)n2)c1,7.074
Cc1ccc(Cl)cc1NC(=O)C1CC(=O)N(Cc2ccccn2)C1 (stereo not given),-1.814
Cc1cc(C(=O)N2CCCC3(CCCN3Cc3cccnc3)C2)[nH]n1 (stereo not given),16.59
COCc1nc(CNc2cc(C)on2)cs1,-0.7597
COc1ccc(CC2CN(C(=O)c3coc(C)n3)CCO2)cc1 (stereo not given),-3.057
Cc1nc(C(=O)N2CCCC(n3cncn3)C2)cs1 (stereo not given),-2.632
Cc1cc(CN2C[C@@H]3CN(C(=O)c4ccco4)CCO[C@@H]3C2)no1,-7.743
Cc1ccc(C(=O)NC2CC2)c(-n2cnnn2)c1C,0.712
Cc1noc(C)c1CN1C[C@@H](C(=O)O)[C@H](c2ccccn2)C1,-0.4955
O=C(CCc1c(F)cccc1F)NS(=O)(=O)c1ccc2c(c1)OCCO2,-7.923
Cc1cc2[nH]c(CN3CCOC(c4ccc(Cl)cc4)C3)cc(=O)n2n1 (stereo not given),4.321
Cc1nc(CN2C[C@@H]3COC[C@]3(COCC(=O)N(C)C)C2)cs1,-0.6352
CCC(CO)N(Cc1cccs1)C(=O)Cc1ccc(O)cc1 (stereo not given),0.3846
CCCN1C[C@H]2CC[C@@H]1CN(C(=O)c1ccc(N(C)CCO)cc1)C2,-1.826
O=c1ccc2c(n1CC1CCOCC1)CCN(Cc1ccoc1)CC2,0.53
COc1cccc(CN2C[C@H]3CCNCC[C@H]3S2(=O)=O)c1,7.822
Cc1cc(F)c(S(=O)(=O)Nc2ccn(CCC#N)n2)cc1F,6.476
O=C(NCC1CCCN1Cc1ccccc1)NCC1(O)CCC1 (stereo not given),-0.3425
CSC(CNS(=O)(=O)c1cnn(C)c1)c1cccc(Cl)c1 (stereo not given),-0.7261
CC(C)(O)CN1CCN(C(=O)c2cccn2Cc2ccccc2)CC1,-5.128
O=C(Cc1csc(-c2ccccc2Cl)n1)NCc1cccc(C(=O)O)c1,0.6431
Cc1ccc(CN2CCN(c3cc(NCCO)ncn3)CC2CCO)o1 (stereo not given),-0.8227
O=C(c1cccn1Cc1cccs1)N1CCN2CCCCC2C1 (stereo not given),8.122
CN(C)S(=O)(=O)c1ccc(CN2CCCC2c2cccs2)o1 (stereo not given),22.23
Cc1ccccc1NC1CCN(C(=O)CCc2ccco2)CC1,-1.436
Cc1c(C)c(C)c2[nH]c(-c3cn(C4CCNCC4)nn3)nc2c1C,0.4914
CC(C)[C@H]1CN(Cc2ccncc2)C[C@@H]1NC(=O)C1(C#N)CCOCC1,2.304
O=C(c1ccc2c(c1)OCCCO2)N1CCCCC1C1OCCO1 (stereo not given),-0.1037
CCn1cc(NS(=O)(=O)c2ccc(Br)s2)c(C(N)=O)n1,6.607
O=C(c1cccnc1)N1C[C@@H]2CC[C@H](C1)N(Cc1ncc[nH]1)C2,-0.9266
Cc1cccc(CN2CC3(CCN(C(N)=O)CC3)OCC2=O)n1,-3.539
Cc1noc(C)c1CN1Cc2cn(C)nc2C(COCC2CC2)C1 (stereo not given),-4.362
CC(NC(=O)c1ccc2c(c1)COC2)c1cccc(N2CCOC2=O)c1 (stereo not given),2.542
CN(C)C(=O)N1CCC(c2nc3ccc(N4CCCC4)cn3n2)CC1,0.839
CCCC(C)NCc1cnc(-c2cccc(C)c2)nc1 (stereo not given),-3.905
c1cnc(N2CCC3(COCc4cnc(-c5cccnc5)nc43)C2)nc1 (stereo not given),-0.08719
Cc1ccc(-c2cc(N)c(=O)n(CC(=O)NCC3CC3)n2)s1,2.09
CCOCC1CN(C(=O)c2ccncn2)Cc2cnn(C)c21 (stereo not given),0.6783
Cc1cc(N2CCC(NC(=O)CCC3CCCO3)CC2)nc(C)n1 (stereo not given),-5.309

Some entries from above, unchanged:

| Compound | Percent Effect |
|---|---|
| `COc1cccc(CN2C[C@H]3CCNCC[C@H]3S2(=O)=O)c1` | 7.822 |
| `Cc1c(C)c(C)c2[nH]c(-c3cn(C4CCNCC4)nn3)nc2c1C` | 0.4914 |
| `N[C@@H]1CCC[C@@H](Oc2ccc(F)cc2Oc2cccc(F)c2)[C@@H]1O` | 2.841 |
| `Cc1ccc(C(=O)N2CCN(Cc3cccs3)CC2)n1C` | -4.827 |
| `COc1ccc2c(ccn2CC(=O)Nc2n[nH]c(C(C)C)n2)c1` | 7.074 |